Measured values taken from patent US8927579B2, “Male contraceptive” (priority 2007, dated 2015).
Where a name gives a salt, the structure may show the parent alone.

Experiments:
[1] = system: circular muscle of human vas deferens; experiment: IC50 against contractions evoked by high K+ (120 mM) in the presence of FPL 64176, circular muscle rings; settings: contractions evoked by K+ (120 mM) in the presence of FPL 64176 (1 μM), means ± S.E.M.
Protocol: (§1) Human vas deferens specimens were obtained after elective vasectomies of healthy fertile men. College ethical approval and the consent of patients were obtained. The specimens were placed in ice-cold Krebs' medium, dissected-free of connective tissue/blood vessels and cut longitudinally into strips (longitudinal muscle preparations; 5-10 mm long & 1 mm wide) or transversely into rings (circular muscle preparations; 3 mm in length). […] Contractile responses were recorded via a Harvard-type force-displacement transducer. […]
(§2) Tissues were equilibrated for 180 min in Krebs' medium containing inhibitors of extraneuronal and neuronal reuptake of noradrenaline, oestradiol (1 μM) and desipramine (0.1 μM) respectively, inhibitors of catechol-O-methyltransferase and monoamine oxidase, tropolone (10 μM) and iproniazid (10 μM) respectively and the β-adrenoceptor blocker, propranolol (1 μM). […] The resulting contractions were measured (see below) and expressed as a percentage of corresponding initial responses to high [K^+]o evoked in the presence of L-type Ca^2+ agonists (i.e. before exposure to L-type Ca^2+ antagonists). […]

[2] = system: longitudinal muscle of human vas deferens; experiment: IC50 against contractions evoked by high K+ (120 mM) in the presence of FPL 64176, longitudinal muscle strips; settings: contractions evoked by K+ (120 mM) in the presence of FPL 64176 (1 μM), means ± S.E.M.
Protocol: as §1, §2

Q: With `C(=C\c1ccccc1)/CN1CCN(C(c2ccccc2)c2ccccc2)CC1` [Cinnarizine, cinnarizine] as the compound, how does the IC50 [1] read?
A: 18.5 ± 5.7 µM

Q: And the IC50 [2]?
A: 11.4 ± 3.3 µM

Q: Which results are given for `CSc1ccc2c(c1)N(CCC1CCCCN1C)c1ccccc1S2` (stereo not shown) [Thioridazine, thioridazine hydrochloride]?
A: IC50 [1]: 22.3 ± 3.3 µM; IC50 [2]: 7.9 ± 2.3 µM
